US20210309709A1
No constants are given. Whether binding was seen depends on the method and setting. Some binding calls cover weakened binding; strength is not graded here. Sequences can lack the tags named with a protein.

The chains behind the UniProt entries cited, without tags or fusion partners. Residues count along the entry.
UniProt P06213, residues 28-1382: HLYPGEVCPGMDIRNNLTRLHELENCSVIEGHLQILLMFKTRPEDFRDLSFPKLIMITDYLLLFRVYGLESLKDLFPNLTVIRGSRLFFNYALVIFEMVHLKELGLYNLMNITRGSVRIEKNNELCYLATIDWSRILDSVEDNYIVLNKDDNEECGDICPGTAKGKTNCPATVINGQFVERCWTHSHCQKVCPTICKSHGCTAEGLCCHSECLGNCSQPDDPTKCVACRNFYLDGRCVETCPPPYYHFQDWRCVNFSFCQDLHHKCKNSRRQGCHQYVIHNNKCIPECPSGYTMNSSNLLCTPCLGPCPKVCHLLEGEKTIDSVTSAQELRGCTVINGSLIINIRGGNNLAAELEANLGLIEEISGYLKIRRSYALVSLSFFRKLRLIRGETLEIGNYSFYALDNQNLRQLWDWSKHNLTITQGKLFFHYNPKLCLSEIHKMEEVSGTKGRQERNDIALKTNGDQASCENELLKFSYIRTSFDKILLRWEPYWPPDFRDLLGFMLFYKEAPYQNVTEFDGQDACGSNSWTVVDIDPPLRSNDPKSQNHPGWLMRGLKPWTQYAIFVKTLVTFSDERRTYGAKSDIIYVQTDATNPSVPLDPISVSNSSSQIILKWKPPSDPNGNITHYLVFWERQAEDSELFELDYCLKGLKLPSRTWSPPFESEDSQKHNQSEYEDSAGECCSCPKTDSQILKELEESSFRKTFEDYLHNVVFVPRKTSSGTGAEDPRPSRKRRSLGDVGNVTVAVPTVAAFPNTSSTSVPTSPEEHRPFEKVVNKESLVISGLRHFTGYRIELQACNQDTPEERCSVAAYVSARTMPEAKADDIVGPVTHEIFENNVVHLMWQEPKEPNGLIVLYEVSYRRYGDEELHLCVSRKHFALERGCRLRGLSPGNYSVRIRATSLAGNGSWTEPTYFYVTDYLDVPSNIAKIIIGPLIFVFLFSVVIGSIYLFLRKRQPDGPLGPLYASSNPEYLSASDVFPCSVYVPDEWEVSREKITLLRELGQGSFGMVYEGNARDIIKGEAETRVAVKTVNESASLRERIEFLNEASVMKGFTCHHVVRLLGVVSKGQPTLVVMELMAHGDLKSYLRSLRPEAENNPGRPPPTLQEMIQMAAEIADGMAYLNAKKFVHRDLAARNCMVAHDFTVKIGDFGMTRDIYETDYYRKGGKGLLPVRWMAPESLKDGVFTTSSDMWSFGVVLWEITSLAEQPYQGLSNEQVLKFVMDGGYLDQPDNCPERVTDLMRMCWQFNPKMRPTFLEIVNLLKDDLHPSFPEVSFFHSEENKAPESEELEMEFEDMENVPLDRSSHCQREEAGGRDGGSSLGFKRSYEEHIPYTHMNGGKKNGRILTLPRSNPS

Target: human insulin receptor (IR) on human IM-9 cells (human) (UniProt P06213)
Experiment: competition flow cytometry, IM-9 cells, 4 C, vs biotinylated RHI

Binder	binding
insulin-Fc fusion protein of SEQ ID NO: 44 (Fc fusion) FVNQHLCGSHLVQALYLVCGERGFFYTDPTGGGPRRGIVEQCCTSICSLYQLENYCGGGGAGGGGDCPKCPAPEMLGGPSVFIFPPKPKDTLLIARTPEVTCVVVDLDPEDPEVQISWFVDGKQMQTAKTQPREEQFSGTYRVVSVLPIGHQDWLKGKQFTCKVNNKALPSPIERTISKARGQAHQPSVYVLPPSREELSKNTVSLTCLIKDFFPPDIDVEWQSNGQQEPESKYRTTPPQLDEDGSYFLYSKLSVDKSRWQRGDTFICAVMHEALHNHYTQESLSHSPG	binds
insulin-Fc fusion protein of SEQ ID NO: 45 (Fc fusion) FVNQHLCGSELVEALALVCGERGFFYTDPTGGGPRRGIVEQCCTSICSLYQLENYCGGGGAGGGGDCPKCPAPEMLGGPSVFIFPPKPKDTLLIARTPEVTCVVVDLDPEDPEVQISWFVDGKQMQTAKTQPREEQFSGTYRVVSVLPIGHQDWLKGKQFTCKVNNKALPSPIERTISKARGQAHQPSVYVLPPSREELSKNTVSLTCLIKDFFPPDIDVEWQSNGQQEPESKYRTTPPQLDEDGSYFLYSKLSVDKSRWQRGDTFICAVMHEALHNHYTQESLSHSPG	binds
insulin-Fc fusion protein of SEQ ID NO: 47 (Fc fusion) FVNQHLCGSHLVEALALVCGERGFYYTDPTGGGPRRGIVEQCCTSICSLYQLENYCGGGGAGGGGDCPKCPAPEMLGGPSVFIFPPKPKDTLLIARTPEVTCVVVDLDPEDPEVQISWFVDGKQMQTAKTQPREEQFSGTYRVVSVLPIGHQDWLKGKQFTCKVNNKALPSPIERTISKARGQAHQPSVYVLPPSREELSKNTVSLTCLIKDFFPPDIDVEWQSNGQQEPESKYRTTPPQLDEDGSYFLYSKLSVDKSRWQRGDTFICAVMHEALHNHYTQESLSHSPG	binds
insulin-Fc fusion protein of SEQ ID NO: 26 (Fc fusion, native N-glycosylation site cNg-NB151) FVNQHLCGSHLVEALELVCGERGFHYGGGGGGSGGGGGIVEQCCTSTCSLDQLENYCGGGGGQGGGGQGGGGQGGGGGDCPKCPAPEMLGGPSVFIFPPKPKDTLLIARTPEVTCVVVDLDPEDPEVQISWFVDGKQMQTAKTQPREEQFNGTYRVVSVLPIGHQDWLKGKQFTCKVNNKALPSPIERTISKARGQAHQPSVYVLPPSREELSKNTVSLTCLIKDFFPPDIDVEWQSNGQQEPESKYRTTPPQLDEDGSYFLYSKLSVDKSRWQRGDTFICAVMHEALHNHYTQESLSHSPG	binds
insulin-Fc fusion protein of SEQ ID NO: 50 (Fc fusion) FVNQHLCGSHLVEALALVCGERGFFYTDPTGGGGGGSGGGGGIVEQCCTSICSLYQLENYCGGGGAGGGGDCPKCPAPEMLGGPSVFIFPPKPKDTLLIARTPEVTCVVVDLDPEDPEVQISWFVDGKQMQTAKTQPREEQFSGTYRVVSVLPIGHQDWLKGKQFTCKVNNKALPSPIERTISKARGQAHQPSVYVLPPSREELSKNTVSLTCLIKDFFPPDIDVEWQSNGQQEPESKYRTTPPQLDEDGSYFLYSKLSVDKSRWQRGDTFICAVMHEALHNHYTQESLSHSPG	binds
insulin-Fc fusion protein of SEQ ID NO: 28 (Fc fusion) FVNQHLCGSHLVEALELVCGERGFHYGGGGGGSGGGGGIVEQCCTSTCSLDQLENYCNGGGGGQGGGGQGGGGQGGGGGDCPKCPAPEMLGGPSVFIFPPKPKDTLLIARTPEVTCVVVDLDPEDPEVQISWFVDGKQMQTAKTQPREEQFNGTYRVVSVLPIGHQDWLKGKQFTCKVNNKALPSPIERTISKARGQAHQPSVYVLPPSREELSKNTVSLTCLIKDFFPPDIDVEWQSNGQQEPESKYRTTPPQLDEDGSYFLYSKLSVDKSRWQRGDTFICAVMHEALHNHYTQESLSHSPG	binds

The next lines start with the values.

binding	Binder
binds	insulin-Fc fusion protein of SEQ ID NO: 52 (Fc fusion) FVNQHLCGSHLVEALALVCGERGFFYTPGGGGGGGGGIVEQCCTSICSLYQLENYCGGGGAGGGGDCPKCPAPEMLGGPSVFIFPPKPKDTLLIARTPEVTCVVVDLDPEDPEVQISWFVDGKQMQTAKTQPREEQFSGTYRVVSVLPIGHQDWLKGKQFTCKVNNKALPSPIERTISKARGQAHQPSVYVLPPSREELSKNTVSLTCLIKDFFPPDIDVEWQSNGQQEPESKYRTTPPQLDEDGSYFLYSKLSVDKSRWQRGDTFICAVMHEALHNHYTQESLSHSPG
binds	insulin-Fc fusion protein of SEQ ID NO: 54 (Fc fusion) FVNQHLCGSHLVEALALVCGERGFFYTQGGGGGGGGGIVEQCCTSICSLYQLENYCGGGGAGGGGDCPKCPAPEMLGGPSVFIFPPKPKDTLLIARTPEVTCVVVDLDPEDPEVQISWFVDGKQMQTAKTQPREEQFSGTYRVVSVLPIGHQDWLKGKQFTCKVNNKALPSPIERTISKARGQAHQPSVYVLPPSREELSKNTVSLTCLIKDFFPPDIDVEWQSNGQQEPESKYRTTPPQLDEDGSYFLYSKLSVDKSRWQRGDTFICAVMHEALHNHYTQESLSHSPG
binds	insulin-Fc fusion protein of SEQ ID NO: 53 (Fc fusion) FVNQHLCGSHLVEALALVCGERGFFYTDPTGGGPRRGIVEQCCTSICSLYQLENYCGGGGGQGGGGQGGGGQGGGGGDCPKCPAPEMLGGPSVFIFPPKPKDTLLIARTPEVTCVVVDLDPEDPEVQISWFVDGKQMQTAKTQPREEQFSGTYRVVSVLPIGHQDWLKGKQFTCKVNNKALPSPIERTISKARGQAHQPSVYVLPPSREELSKNTVSLTCLIKDFFPPDIDVEWQSNGQQEPESKYRTTPPQLDEDGSYFLYSKLSVDKSRWQRGDTFICAVMHEALHNHYTQESLSHSPG
binds	insulin-Fc fusion protein of SEQ ID NO: 57 (Fc fusion) FVNQHLCGSHLVEALELVCGERGFFYGGGGGGSGGGGGIVEQCCTSTCSLDQLENYCGGGGGQGGGGQGGGGQGGGGGDCPKCPAPEMLGGPSVFIFPPKPKDTLLIARTPEVTCVVVDLDPEDPEVQISWFVDGKQMQTAKTQPREEQFNGTYRVVSVLPIGHQDWLKGKQFTCKVNNKALPSPIERTISKARGQAHQPSVYVLPPSREELSKNTVSLTCLIKDFFPPDIDVEWQSNGQQEPESKYRTTPPQLDEDGSYFLYSKLSVDKSRWQRGDTFICAVMHEALHNHYTQESLSHSPG
binds	insulin-Fc fusion protein of SEQ ID NO: 56 (Fc fusion) FVNQHLCGSHLVEALELVCGERGFHYGGGGGGSGGGGGIVEQCCTSTCSLDQLENYCNHGGGGQGGGGQGGGGQGGGGGDCPKCPAPEMLGGPSVFIFPPKPKDTLLIARTPEVTCVVVDLDPEDPEVQISWFVDGKQMQTAKTQPREEQFNGTYRVVSVLPIGHQDWLKGKQFTCKVNNKALPSPIERTISKARGQAHQPSVYVLPPSREELSKNTVSLTCLIKDFFPPDIDVEWQSNGQQEPESKYRTTPPQLDEDGSYFLYSKLSVDKSRWQRGDTFICAVMHEALHNHYTQESLSHSPG
